The values below come from the supplement of paper PMC8104966.

Some of the results follow. This data set is noisy: repeats of one test often differ as much as different tests do.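 U2OS cells carrying ACE2 were mixed with U2OS cells carrying full-length spike, and fusion was scored by imaging as the share of nuclei showing both cell types' fluorescent markers. A compound counts as an inhibitory hit when it is non-toxic and its fusion z-score falls below -3, meaning more than three standard deviations below the plate's DMSO wells.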

The subject of this test is U2OS ACE2 x SARS-CoV-2 spike co-culture. In words: cell-cell fusion (fraction fused) z-score vs plate DMSO control; higher = more fusion. The note with it: 30 µM; 5 h; toxicity class: non-toxic, passed QC.
Turning to `CN1C(C(=O)Nc2ccccn2)=C(O)c2sc(Cl)cc2S1(=O)=O`, the “cell-cell fusion (z-score)” value was inactive: 2.01. With `CC(CCC(=O)O)[C@H]1CCC2C3C[C@H](O)[C@@H]4C[C@H](O)CC[C@]4(C)C3CC[C@@]21C` (stereo partly drawn) [alpha-HYDROXYDEOXYCHOLIC ACID] the figure was inactive: 2.88. In the case of `CC(=O)O[C@@]12CO[C@@H]1C[C@H](O)[C@@]1(C)C(=O)[C@H](O)C3=C(C)[C@@H](OC(=O)[C@H](O)[C@@H](NC(=O)OC(C)(C)C)c4ccccc4)C[C@@](O)([C@@H](OC(=O)c4ccccc4)[C@H]21)C3(C)C` [Docetaxel] it was inactive: 0.72. Take `Cl.Clc1cccc(Cl)c1NC1=NCCN1` [Clonidine hydrochloride]: the “cell-cell fusion (z-score)” value was inactive: 1.2. Turning to `C[C@H]1[C@H](OC(=O)CCC(=O)O)O[C@@H]2O[C@]3(C)CC[C@H]4[C@H](C)CC[C@@H]1[C@@]24OO3`, the “cell-cell fusion (z-score)” value is inactive: 1.02. With `Cl.NCCc1ccccc1`, the “cell-cell fusion (z-score)” value is inactive: 1.2. With `Cc1cn(-c2cc(NC(=O)c3ccc(C)c(Nc4nccc(-c5cccnc5)n4)c3)cc(C(F)(F)F)c2)cn1` [Nilotinib] the figure was inactive: 5.42. For the molecule `Cl.Cl.O=S(=O)(NCCNC/C=C/c1ccc(Br)cc1)c1cccc2cnccc12`, the “cell-cell fusion (z-score)” value was active: -4.17. In the case of `COc1cc2c(Nc3ccc(Br)cc3F)ncnc2cc1OCC1CCN(C)CC1` [Vandetanib (Zactima)] it was inactive: 1.28. With `CC(=O)NS(=O)(=O)c1ccc(NC(=O)c2ccccc2C(=O)O)cc1` the figure was inactive: 1.95; with `Cn1cc(-c2ccc3ncc(Cc4ccc5ncccc5c4)n3n2)cn1`, inactive: -0.513. In the case of `Nc1ncnc2c1ncn2[C@@H]1O[C@H](COP(=O)(O)CP(=O)(O)OP(=O)([O-])[O-])[C@H](O)C1O.[Li+].[Li+]` (stereo partly drawn) [alpha,beta-Methylene adenosine 5'-triphosphate dilithium] it was inactive: 2.37; in that of `O=C(O)COCCN1CCN([C@H](c2ccccc2)c2ccc(Cl)cc2)CC1` [Levocetirizine], inactive: 2.58. As for `CCOC(=O)N1c2ccc(C(F)(F)F)cc2[C@@H](N(Cc2cc(C(F)(F)F)cc(C(F)(F)F)c2)C(=O)OC)C[C@H]1CC` [Torcetrapib], the “cell-cell fusion (z-score)” value was inactive: 2.7.

As for `OC(CN1CCC(Cc2ccc(F)cc2)CC1)c1ccc(Cl)cc1` (centres undefined) [Eliprodil], the “cell-cell fusion (z-score)” value is inactive: 4.46. Turning to `COCCc1ccc(OCC(O)CNC(C)C)cc1.O=C(O)C(O)C(O)C(=O)O` (centres undefined), the “cell-cell fusion (z-score)” value is inactive: -0.379.

In the case of `COc1cc(OC)c(C(C)=O)c(O)c1C`, the “cell-cell fusion (z-score)” value is inactive: 1.39.

`CC1(C)C2CC[C@]3(C)C(C(=O)C=C4[C@@H]5C[C@@](C)(C(=O)[O-])CC[C@]5(C)CC[C@]43C)[C@@]2(C)CC[C@@H]1OC(=O)CCC(=O)[O-].[Na+].[Na+]` (some centres undefined): the “cell-cell fusion (z-score)” value was inactive: 1.35. Take `C[C@H](CSC(=O)c1ccccc1)C(=O)N1C[C@@H](Sc2ccccc2)CC1C(=O)[O-].C[C@H](CSC(=O)c1ccccc1)C(=O)N1C[C@@H](Sc2ccccc2)CC1C(=O)[O-].[Ca+2]` (some centres undefined) [Zofenopril calcium]: the “cell-cell fusion (z-score)” value is inactive: 2.58. In the case of `COC1=CC(=O)C[C@@H](C)[C@]12Oc1c(Cl)c(OC)cc(OC)c1C2=O` it was inactive: 0.7. In the case of `Cl.NCCCC(N)(C(=O)O)C(F)F` (racemic) [DL-alpha-Difluoromethylornithine hydrochloride] it was inactive: 4.46; in that of `CCOc1nc2cccc(C(=O)OCc3oc(=O)oc3C)c2n1Cc1ccc(-c2ccccc2-c2nc(=O)o[nH]2)cc1` [Azilsartan Medoxomil], inactive: 2.49; in that of `NC(=O)CC[C@H](NC(=O)[C@@H](N)CO)C(=O)O`, inactive: 1.45. With `CC(O)(CS(=O)(=O)c1ccc(F)cc1)C(=O)Nc1ccc(C#N)c(C(F)(F)F)c1` (centres undefined) [Bicalutamide (Casodex)] the figure was inactive: 2.26; with `C=CC[C@@H]1/C=C(\C)C[C@H](C)C[C@H](OC)[C@H]2O[C@@](O)(C(=O)C(=O)N3CCCC[C@H]3C(=O)O[C@H](/C(C)=C/C3CC[C@@H](O)[C@H](OC)C3)[C@H](C)[C@@H](O)CC1=O)[C@H](C)C[C@@H]2OC` (some centres undefined), active: -14.2. For the molecule `CC1(C)S[C@@H]2[C@H](NC(=O)[C@H](N)c3ccccc3)C(=O)N2[C@H]1C(=O)O` [Ampicillin], the “cell-cell fusion (z-score)” value was inactive: 2.01. In the case of `COc1ccc(C(=O)NCc2cccnc2)cc1C(=O)NCc1cccnc1` [Picotamide] it was inactive: 1.88.

In the case of `O=[N+]([O-])O[C@H]1CO[C@H]2[C@@H]1OC[C@H]2O[N+](=O)[O-]` [Isosorbide dinitrate], the “cell-cell fusion (z-score)” value was inactive: 1.63. With `S=c1[nH]c(-c2ccccc2)cn1-c1ccccc1` the figure was inactive: -0.209; with `CC[C@@H]1C(=O)OC[C@@H]1Cc1cncn1C.O=[N+]([O-])O` [Pilocarpine nitrate], inactive: 1.09. In the case of `CC[C@@H]1C(=O)OC[C@@H]1Cc1cncn1C.O=[N+]([O-])O` it was inactive: 1.03; in that of `COc1ccccc1OCC(O)CN1CCN(CC(=O)Nc2c(C)cccc2C)CC1.Cl.Cl` (centres undefined) [Ranolazine dihydrochloride], inactive: 1.58.

On to `CCCC(=O)[O][Na]` [Sodium butyrate], for which the “cell-cell fusion (z-score)” value is inactive: 1.94. As for `C#CCN[C@H](C)Cc1ccccc1.Cl` [R-(-)-Desmethyldeprenyl hydrochloride], the “cell-cell fusion (z-score)” value is inactive: 2.35. On to `CO[C@H]1C(=O)[C@]2(C)[C@@H](OC)C[C@H]3OC[C@@]3(OC(C)=O)[C@H]2[C@H](OC(=O)c2ccccc2)[C@]2(O)C[C@H](OC(=O)[C@H](O)[C@@H](NC(=O)OC(C)(C)C)c3ccccc3)C(C)=C1C2(C)C` [Cabazitaxel], for which the “cell-cell fusion (z-score)” value is inactive: -1.14. In the case of `CC[C@@H](CO)NC(=O)[C@@H]1C=C2c3cccc4c3c(cn4C)C[C@H]2N(C)C1.O=C(O)/C=C\C(=O)O` [Methysergide maleate] it was inactive: 2.82; in that of `COc1cc(N)c(Cl)cc1C(=O)NC[C@@H]1CCN2CCC[C@@H]12.Cl.O`, inactive: 3.7.

Consider `CCCC(=O)O[C@]1(C(=O)CO)CC[C@H]2[C@@H]3CCC4=CC(=O)CC[C@]4(C)[C@H]3[C@@H](O)C[C@@]21C` [Hydrocortisone butyrate], for which the “cell-cell fusion (z-score)” value is inactive: 1.27. In the case of `C[C@@](Cc1ccc(O)c(O)c1)(NN)C(=O)O` it was inactive: 0.267.

`Cl.CN(C)CC\C=C1\c2ccccc2C=Cc2ccccc12` [Cyclobenzaprine hydrochloride]: the “cell-cell fusion (z-score)” value is inactive: 2.29.

With `CC1(C)CC2C1CCC1(C)OC2(C)CCC1O` (centres undefined), the “cell-cell fusion (z-score)” value is inactive: 2.76. With `Br.CN1C2CC(OC(=O)[C@H](CO)c3ccccc3)CC1C1OC12` (single isomer, unassigned; (-)) [(-)-Scopolamine hydrobromide] the figure was inactive: 1.26. For `O=C(O)[C@H]1O[C@@H](Oc2cc3oc(-c4ccccc4)cc(=O)c3c(O)c2O)[C@H](O)[C@@H](O)[C@@H]1O`, the “cell-cell fusion (z-score)” value is inactive: 1.59. With `CN1CCC(c2c[nH]c3ccc(O)cc23)CC1.O=C(O)/C=C\C(=O)O` the figure was inactive: 1.88; with `CC(=O)[C@H]1CCC2C3CC=C4C[C@@H](OS(=O)(=O)[O-])CC[C@]4(C)C3CC[C@@]21C.[Na+]` (some centres undefined) [Pregnenolone sulfate sodium], inactive: 0.0618; with `C=CCc1cccc(/C=N/NC(=O)CN2CCN(Cc3ccccc3)CC2)c1O`, inactive: 0.246. With `CN(C)CC(c1ccc(O)cc1)C1(O)CCCCC1` (centres undefined) [Desvenlafaxine] the figure was inactive: 3.3; with `COC(=O)c1ccc2c(c1)NC(=O)/C2=C(\Nc1ccc(N(C)C(=O)CN2CCN(C)CC2)cc1)c1ccccc1` [BIBF1120 (Vargatef)], inactive: 1.62; with `Nc1nc(N)c2nc(CNc3ccc(C(=O)NC(CCC(=O)O)C(=O)O)cc3)cnc2n1` (centres undefined), inactive: 1.7.

Take `COc1ccc([C@@H]2CC(=O)c3c(O)cc(O[C@@H]4O[C@H](CO[C@H]5O[C@@H](C)[C@H](O)[C@@H](O)[C@H]5O)[C@@H](O)[C@H](O)[C@H]4O)cc3O2)cc1O`: the “cell-cell fusion (z-score)” value is inactive: 1.91. In the case of `CC(C)NCC(O)COc1cccc2ccccc12.Cl` (centres undefined) [Propranolol hydrochloride] it was inactive: 2.44; in that of `COc1ccc(NS(=O)(=O)c2ccc(N)cc2)nn1`, inactive: 2.41. With `O=NN(CCCl)C(=O)NC1CCCCC1` [Lomustine (CeeNU)] the figure was inactive: 1.55.

As for `CC(C(=O)O)c1cccc(Oc2ccccc2)c1` (centres undefined), the “cell-cell fusion (z-score)” value was inactive: -0.922. As to `N#Cc1ccc(C(c2ccc(C#N)cc2)n2cncn2)cc1` [Letrozole], the “cell-cell fusion (z-score)” value is inactive: 1.12. In the case of `COc1cc2ncnc(Nc3ccc(F)c(Cl)c3)c2cc1OCCCN1CCOCC1` [Gefitinib (ZD1839)], the “cell-cell fusion (z-score)” value is inactive: -0.815. In the case of `COc1cc2ncnc(Nc3ccc(F)c(Cl)c3)c2cc1OCCCN1CCOCC1` [Gefitinib (Iressa)] it was inactive: 1.65; in that of `CCCCCCCCCCCCCCCCCC(=O)O.CC[C@H]1OC(=O)[C@H](C)[C@@H](O[C@H]2C[C@@](C)(OC)[C@@H](O)[C@H](C)O2)[C@H](C)[C@@H](O[C@@H]2O[C@H](C)C[C@H](N(C)C)[C@H]2O)[C@](C)(O)C[C@@H](C)C(=O)[C@H](C)[C@@H](O)[C@]1(C)O`, inactive: 1.89; in that of `Cn1nnnc1SCC1=C(C(=O)[O-])N2C(=O)C(NC(=O)C(O)c3ccccc3)C2SC1.[Na+]` (centres undefined), inactive: 1.77.
